Measurements: PMC6768323, “Adverse Maternal, Fetal, and Postnatal Effects of Hexafluoropropylene Oxide Dimer Acid (GenX) from Oral Gestational Exposure in Sprague-Dawley Rats” (Environmental Health Perspectives, 2019)

Assay: Margin of internal exposure, maternal rat serum : human worker plasma

O=C(O)C(F)(OC(F)(F)C(F)(F)C(F)(F)F)C(F)(F)F (centres unmarked) [HFPO-DA, Hexafluoropropylene oxide dimer acid]
mean dam serum concentration versus highest worker plasma concentration (1 mg/kg per day): 4 fold
mean dam serum concentration versus highest worker plasma concentration (125 mg/kg per day): 272 fold
